Test results reported in doi:10.1101/2024.12.01.626216.
Results are given in words; binding and its absence hold for the method and conditions named. In cells and extracts the contact can be indirect. Some results given as binding are weak or reduced against the parent protein; the word gives no strength.

Target: T1, DNAJC7 (human (endogenous in iPSC-derived motor neurons)) (UniProt Q99615)
T1 sequence: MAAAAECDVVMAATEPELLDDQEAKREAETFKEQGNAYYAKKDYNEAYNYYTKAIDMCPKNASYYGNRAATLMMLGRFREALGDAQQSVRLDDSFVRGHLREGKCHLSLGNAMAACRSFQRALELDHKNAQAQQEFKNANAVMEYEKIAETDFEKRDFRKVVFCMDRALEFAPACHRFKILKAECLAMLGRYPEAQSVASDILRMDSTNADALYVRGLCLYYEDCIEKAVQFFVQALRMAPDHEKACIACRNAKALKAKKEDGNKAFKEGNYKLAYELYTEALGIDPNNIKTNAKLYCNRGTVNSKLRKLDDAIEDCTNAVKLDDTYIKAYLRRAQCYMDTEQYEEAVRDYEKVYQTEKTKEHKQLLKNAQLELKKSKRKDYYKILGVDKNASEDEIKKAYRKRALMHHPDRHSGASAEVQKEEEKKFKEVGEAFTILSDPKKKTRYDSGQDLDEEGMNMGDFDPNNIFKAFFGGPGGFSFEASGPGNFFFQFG
Assay: co-IP; immunoprecipitation of endogenous DNAJC7 from iPSC-derived human motor neurons followed by Western blot; input = 4% of total protein

binding: binds
B1: MATR3 (protein, UniProt P43243 1-847)
chain: MSKSFQQSSLSRDSQGHGRDLSAAGIGLLAAATQSLSMPASLGRMNQGTARLASLMNLGMSSSLNQQGAHSALSSASTSSHNLQSIFNIGSRGPLPLSSQHRGDADQASNILASFGLSARDLDELSRYPEDKITPENLPQILLQLKRRRTEEGPTLSYGRDGRSATREPPYRVPRDDWEEKRHFRRDSFDDRGPSLNPVLDYDHGSRSQESGYYDRMDYEDDRLRDGERCRDDSFFGETSHNYHKFDSEYERMGRGPGPLQERSLFEKKRGAPPSSNIEDFHGLLPKGYPHLCSICDLPVHSNKEWSQHINGASHSRRCQLLLEIYPEWNPDNDTGHTMGDPFMLQQSTNPAPGILGPPPPSFHLGGPAVGPRGNLGAGNGNLQGPRHMQKGRVETSRVVHIMDFQRGKNLRYQLLQLVEPFGVISNHLILNKINEAFIEMATTEDAQAAVDYYTTTPALVFGKPVRVHLSQKYKRIKKPEGKPDQKFDQKQELGRVIHLSNLPHSGYSDSAVLKLAEPYGKIKNYILMRMKSQAFIEMETREDAMAMVDHCLKKALWFQGRCVKVDLSEKYKKLVLRIPNRGIDLLKKDKSRKRSYSPDGKESPSDKKSKTDGSQKTESSTEGKEQEEKSGEDGEKDTKDDQTEQEPNMLLESEDELLVDEEEAAALLESGSSVGDETDLANLGDVASDGKKEPSDKAVKKDGSASAAAKKKLKKVDKIEELDQENEAALENGIKNEENTEPGAESSENADDPNKDTSENADGQSDENKDDYTIPDEYRIGPYQPNVPVGIDYVIPKTGFYCKLCSLFYTNEEVAKNTHCSSLPHYQKLKKFLNKLAEERRQKKET
